Test results reported in article doi:10.1101/112144.
Results are given in words; binding and its absence hold for the method and conditions named. Binding seen in cells or lysates may run through a third protein.

Amino acid sequences for entries named in this document (tags omitted).
UniProt O09106: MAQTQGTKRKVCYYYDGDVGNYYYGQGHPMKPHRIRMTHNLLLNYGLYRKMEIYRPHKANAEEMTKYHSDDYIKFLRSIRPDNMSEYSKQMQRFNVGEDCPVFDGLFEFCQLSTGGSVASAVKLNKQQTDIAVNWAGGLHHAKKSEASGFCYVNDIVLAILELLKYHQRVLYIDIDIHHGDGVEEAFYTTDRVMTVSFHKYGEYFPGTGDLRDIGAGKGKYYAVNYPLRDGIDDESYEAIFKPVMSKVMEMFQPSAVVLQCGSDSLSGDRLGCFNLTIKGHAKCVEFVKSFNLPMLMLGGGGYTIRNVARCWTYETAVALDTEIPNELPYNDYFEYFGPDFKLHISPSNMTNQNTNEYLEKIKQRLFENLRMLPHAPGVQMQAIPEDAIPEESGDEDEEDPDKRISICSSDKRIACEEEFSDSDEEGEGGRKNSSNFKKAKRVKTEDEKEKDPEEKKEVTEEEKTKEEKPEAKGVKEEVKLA

Target: T1, Tbx1:3xHA (mouse) (UniProt P70323)
T1 sequence: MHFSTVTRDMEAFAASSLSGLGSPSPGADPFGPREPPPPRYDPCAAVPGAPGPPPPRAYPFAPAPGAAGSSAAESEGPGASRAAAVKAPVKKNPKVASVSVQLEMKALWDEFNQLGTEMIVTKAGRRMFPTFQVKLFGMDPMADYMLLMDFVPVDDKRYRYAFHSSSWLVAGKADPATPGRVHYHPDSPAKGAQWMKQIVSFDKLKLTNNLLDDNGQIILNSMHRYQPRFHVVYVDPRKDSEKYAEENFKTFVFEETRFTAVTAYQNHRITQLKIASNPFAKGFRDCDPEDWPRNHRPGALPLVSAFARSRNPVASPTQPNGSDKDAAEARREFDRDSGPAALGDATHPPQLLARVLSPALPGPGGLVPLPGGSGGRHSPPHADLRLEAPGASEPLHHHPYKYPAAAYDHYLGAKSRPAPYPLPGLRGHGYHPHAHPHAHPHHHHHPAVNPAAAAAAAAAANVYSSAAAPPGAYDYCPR
Assay: co-IP

binding: no binding
Substance: HDAC1 (from UniProt O09106 1-482)
